Assay results published in US8841077B2, “Biomarkers for amyotrophic lateral sclerosis and methods using the same” (Massachusetts General Hospital, priority 2006, dated 2014).

experiment: Metabolomic profiling (GC-MS/LC-MS) of CSF samples, ALS subjects vs control subjects (Example 1; Tables 3, 4); type: in vivo, human; settings: CSF; ALS mean as compared to control mean; T-tests of ALS vs. Controls

| Molecule | % change in ALS [%] |
| --- | --- |
| C[C@H](N)C(=O)O [Alanine - 9, Alanine] | 14 |
| O=C1CC[C@@H](C(=O)O)N1 [5-oxoproline - 9, 5-oxoproline] | 13 |
| CCC(N)C(=O)O (stereo not shown) [2-aminobutanoic acid - 9, 2-aminobutanoic acid] | −4 |
| O=C(O)CC(O)C(=O)O (stereo not shown) [Malic acid - 35, Malic acid] | −12 |
| NCCC(=O)N[C@@H](Cc1cnc[nH]1)C(=O)O [Carnosine - 35, Carnosine] | −8 |
| O=C1CC(C(=O)O)NC(=O)N1 (stereo not shown) [Hydroorotate - 9, Hydroorotate] | 2 |
| C[C@@H](O)[C@H](N)C(=O)O [Threonine - 9, Threonine] | −3 |
| CCCCCCCCCCCCCCCCCC(=O)O [Octadecanoic acid - 9, Octadecanoic acid] | −5 |
| CC(=O)NCCCC(=O)O [4-acetamidobutyric acid - 35, 4-acetamidobutyric acid] | −4 |
| O=P(O)(O)OP(=O)(O)O [pyrophosphate - 35, pyrophosphate] | 13 |
| CCCCCC/C=C\CCCCCCCC(=O)O [Palmitoleic acid - 9, Palmitoleic acid] | −15 |
| alpha-Hydroxyisobutyric acid-tms [alpha-Hydroxyisobutyric acid-tms - 9] | 27 |
| CC(=O)N[C@@H](CCC(N)=O)C(=O)O [N-Acetylglutamine - 9, N-Acetylglutamine] | 37 |
| O=C1O[C@@H]([C@H](O)CO)[C@@H](O)[C@H]1O [Gulono-1-4-lactone - 9, Gulono-1-4-lactone] | 0 |
| N[C@@H](Cc1ccc(O)cc1)C(=O)O [Tyrosine - 35, Tyrosine] | 19 |
| O=C(O)C(=O)CS [Mercaptopyruvate - 35, Mercaptopyruvate] | −7 |
| Nc1nc2c(ncn2[C@@H]2O[C@H](CO)[C@@H](O)[C@H]2O)c(=O)[nH]1 [Guanosine - 35, Guanosine] | −3 |
| O=P(O)(O)OC(CO)CO [Glycerol-2-phosphate (previously Metabolite - 1573) - 35] | 16 |
| CSCC[C@H](N)C(=O)O [Methionine - 35, Methionine] | 21 |
| O=C(O)C(O)CO (stereo not shown) [Glycerate - 9, Glycerate] | −6 |
| Tartarate [Tartarate - 9] | 0 |
| O=CC[C@H](O)[C@H](O)CO [2-deoxy-D-ribose-35, 2-deoxy-D-ribose] | 12 |
| O=C(O)CCCCCCCCCCCO [12-hydroxydodecanoic acid - 9, 12-hydroxydodecanoic acid] | 0 |

same assay, conditions: CSF; ALS mean as compared to the control mean

| Molecule | % change in ALS [%] |
| --- | --- |
| C[C@H](N)C(=O)O [Alanine - 9, Alanine] | 14 |
| O=C1CC[C@@H](C(=O)O)N1 [5-oxoproline - 9, 5-oxoproline] | 13 |
| CCC(N)C(=O)O (stereo not shown) [2-aminobutanoic acid - 9, 2-aminobutanoic acid] | −4 |
| O=C(O)CC(O)C(=O)O (stereo not shown) [Malic acid - 35, Malic acid] | −12 |
| NCCC(=O)N[C@@H](Cc1cnc[nH]1)C(=O)O [Carnosine - 35, Carnosine] | −8 |
| O=C1CC(C(=O)O)NC(=O)N1 (stereo not shown) [Hydroorotate - 9, Hydroorotate] | 2 |
| C[C@@H](O)[C@H](N)C(=O)O [Threonine - 9, Threonine] | −3 |
| CCCCCCCCCCCCCCCCCC(=O)O [Octadecanoic acid - 9, Octadecanoic acid] | −5 |
| CC(=O)NCCCC(=O)O [4-acetamidobutyric acid - 35, 4-acetamidobutyric acid] | −4 |
| O=P(O)(O)OP(=O)(O)O [pyrophosphate - 35, pyrophosphate] | 13 |
| CCCCCC/C=C\CCCCCCCC(=O)O [Palmitoleic acid - 9, Palmitoleic acid] | −15 |
| alpha-Hydroxyisobutyric acid-tms [alpha-Hydroxyisobutyric acid-tms - 9] | 27 |
| CC(=O)N[C@@H](CCC(N)=O)C(=O)O [N-Acetylglutamine - 9, N-Acetylglutamine] | 37 |
| O=C1O[C@@H]([C@H](O)CO)[C@@H](O)[C@H]1O [Gulono-1-4-lactone - 9, Gulono-1-4-lactone] | 0 |
| N[C@@H](Cc1ccc(O)cc1)C(=O)O [Tyrosine - 35, Tyrosine] | 19 |
| O=C(O)C(=O)CS [Mercaptopyruvate - 35, Mercaptopyruvate] | −7 |
| Nc1nc2c(ncn2[C@@H]2O[C@H](CO)[C@@H](O)[C@H]2O)c(=O)[nH]1 [Guanosine - 35, Guanosine] | −3 |
| CSCC[C@H](N)C(=O)O [Methionine - 35, Methionine] | 21 |
| O=C(O)C(O)CO (stereo not shown) [Glycerate - 9, Glycerate] | −6 |
| Tartarate [Tartarate - 9] | 0 |
| O=C(O)CCCCCCCCCCCO [12-hydroxydodecanoic acid - 9, 12-hydroxydodecanoic acid] | 0 |

same assay, conditions: CSF; mean in ALS samples as compared to control samples

| Molecule | Increase (+) or Decrease (−) in ALS |
| --- | --- |
| C[C@H](N)C(=O)O [Alanine - 9, Alanine] | + |
| O=C1CC[C@@H](C(=O)O)N1 [5-oxoproline - 9, 5-oxoproline] | + |
| CCC(N)C(=O)O (stereo not shown) [2-aminobutanoic acid - 9, 2-aminobutanoic acid] | − |
| O=C(O)CC(O)C(=O)O (stereo not shown) [Malic acid - 35, Malic acid] | − |
| NCCC(=O)N[C@@H](Cc1cnc[nH]1)C(=O)O [Carnosine - 35, Carnosine] | − |
| O=C1CC(C(=O)O)NC(=O)N1 (stereo not shown) [Hydroorotate - 9, Hydroorotate] | + |
| C[C@@H](O)[C@H](N)C(=O)O [Threonine - 9, Threonine] | − |
| CCCCCCCCCCCCCCCCCC(=O)O [Octadecanoic acid - 9, Octadecanoic acid] | − |
| CC(=O)NCCCC(=O)O [4-acetamidobutyric acid - 35, 4-acetamidobutyric acid] | − |
| O=P(O)(O)OP(=O)(O)O [pyrophosphate - 35, pyrophosphate] | + |
| CCCCCC/C=C\CCCCCCCC(=O)O [Palmitoleic acid - 9, Palmitoleic acid] | − |
| alpha-Hydroxyisobutyric acid-tms [alpha-Hydroxyisobutyric acid-tms - 9] | + |
| CC(=O)N[C@@H](CCC(N)=O)C(=O)O [N-Acetylglutamine - 9, N-Acetylglutamine] | + |
| N[C@@H](Cc1ccc(O)cc1)C(=O)O [Tyrosine - 35, Tyrosine] | + |
| O=C(O)C(=O)CS [Mercaptopyruvate - 35, Mercaptopyruvate] | − |
| Nc1nc2c(ncn2[C@@H]2O[C@H](CO)[C@@H](O)[C@H]2O)c(=O)[nH]1 [Guanosine - 35, Guanosine] | − |
| CSCC[C@H](N)C(=O)O [Methionine - 35, Methionine] | + |
| O=C(O)C(O)CO (stereo not shown) [Glycerate - 9, Glycerate] | − |

same assay, conditions: CSF; mean in ALS samples vs control samples; T-tests

| Molecule | Increase (+) or Decrease (−) in ALS |
| --- | --- |
| C[C@H](N)C(=O)O [Alanine - 9, Alanine] | + |
| O=C1CC[C@@H](C(=O)O)N1 [5-oxoproline - 9, 5-oxoproline] | + |
| CCC(N)C(=O)O (stereo not shown) [2-aminobutanoic acid - 9, 2-aminobutanoic acid] | − |
| O=C(O)CC(O)C(=O)O (stereo not shown) [Malic acid - 35, Malic acid] | − |
| NCCC(=O)N[C@@H](Cc1cnc[nH]1)C(=O)O [Carnosine - 35, Carnosine] | − |
| O=C1CC(C(=O)O)NC(=O)N1 (stereo not shown) [Hydroorotate - 9, Hydroorotate] | + |
| C[C@@H](O)[C@H](N)C(=O)O [Threonine - 9, Threonine] | − |
| CCCCCCCCCCCCCCCCCC(=O)O [Octadecanoic acid - 9, Octadecanoic acid] | − |
| CC(=O)NCCCC(=O)O [4-acetamidobutyric acid - 35, 4-acetamidobutyric acid] | − |
| O=P(O)(O)OP(=O)(O)O [pyrophosphate - 35, pyrophosphate] | + |
| CCCCCC/C=C\CCCCCCCC(=O)O [Palmitoleic acid - 9, Palmitoleic acid] | − |
| alpha-Hydroxyisobutyric acid-tms [alpha-Hydroxyisobutyric acid-tms - 9] | + |
| CC(=O)N[C@@H](CCC(N)=O)C(=O)O [N-Acetylglutamine - 9, N-Acetylglutamine] | + |
| N[C@@H](Cc1ccc(O)cc1)C(=O)O [Tyrosine - 35, Tyrosine] | + |
| O=C(O)C(=O)CS [Mercaptopyruvate - 35, Mercaptopyruvate] | − |
| Nc1nc2c(ncn2[C@@H]2O[C@H](CO)[C@@H](O)[C@H]2O)c(=O)[nH]1 [Guanosine - 35, Guanosine] | − |
| O=P(O)(O)OC(CO)CO [Glycerol-2-phosphate (previously Metabolite - 1573) - 35] | + |
| CSCC[C@H](N)C(=O)O [Methionine - 35, Methionine] | + |
| O=C(O)C(O)CO (stereo not shown) [Glycerate - 9, Glycerate] | − |
| O=CC[C@H](O)[C@H](O)CO [2-deoxy-D-ribose-35, 2-deoxy-D-ribose] | + |
